Reference: US20190284292A1

Target: monkey 4-1BB (monkey)
Assay: binding to 293T cells expressing monkey 4-1BB

Binder	binding
ZW106 (antibody, V domains shown) VH: QVQLQQPESELVRPGGSVKLSCKASGYTFTSYWMDWVKQRHGQGLEWIGNIYPDSGGTNYAEKFKSKATLTVDTSSSTAYMHLSSLTSEDSAVYYCTREEALGGYYELTYWGQGTLVTVSA VL: DIVLTQSPASLPVSLGQRATISCRASQSVSTSSYSYMHWYQQKPGQPPKLLIKYASNLESGVPARFSGSGSGTDFTLNIHPVEEEDTATYYCQHSWEIPYTFGGGTKLEIE	binds
ZW107 (antibody, V domains shown) VH: QVQLQQSGAELVRPGTSVKISCKASGYAFTNYWLGWVKQRPGHGLEWIGDIYPGNGNNYYSEKFKDKATLTADKSSSTVYIRLSSLTSEDSAVYFCARHGSFRSAMDYWGQGTSVTVSS VL: DIQMTQSPASPSASVGETVTITCRASENIYSYLAWYQQKQGKSPQLLVYNAKTLADGVPSRFSGSGSGTQFSLKINSLQPEDFGSYYCQHHYGTPPTFGGGTKLEIK	binds

Results are given in words; binding and its absence hold for the method and conditions named. Binding calls can cover weak binding; strength is not graded here.
